# Results reported in the supplement of paper PMC8728848.
# Some of the results follow.
# Legend:
# Test in all cases: glycan array binding signal (z-score within array); higher = stronger binding
# Conditions in all cases: glycan notation: IUPAC condensed, linker removed
# [1] = biological target: Gal(a1-3)Gal(b1-4)GlcNAc(b1-2)Man
# How it was run: (§1)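 From the Consortium for Functional Glycomics database, 3228 arrays were curated, keeping only those whose protein sequence was available. Binding is given as a within-array Z-score averaged across arrays sharing a protein sequence and across linkers. Negative Z-scores can be read as non-binding.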
# [2] = biological target: Gal(a1-3)Gal(b1-4)GlcNAc(b1-2)Man(a1-3)[Gal(a1-3)Gal(b1-4)GlcNAc(b1-2)Man(a1-6)]Man(b1-4)GlcNAc(b1-4)GlcNAc
# How it was run: as §1
# [3] = biological target: Gal(a1-3)Gal(b1-4)GlcNAc(b1-3)GalNAc
# How it was run: as §1
# [4] = biological target: Gal(a1-3)Gal(b1-4)GlcNAc(b1-6)GalNAc
# How it was run: as §1
# [5] = biological target: Gal(a1-3)Gal(b1-4)[Fuc(a1-3)]GlcNAc
# How it was run: as §1
# [6] = biological target: Gal(a1-3)Gal(b1-4)[Fuc(a1-3)]GlcNAc(b1-2)Man(a1-3)[Gal(a1-3)Gal(b1-4)[Fuc(a1-3)]GlcNAc(b1-2)Man(a1-6)]Man(b1-4)GlcNAc(b1-4)GlcNAc
# How it was run: as §1
# [7] = biological target: Gal(a1-3)GalNAc
# How it was run: as §1
# [8] = biological target: Gal(a1-3)[Gal(a1-4)]Gal(b1-4)GlcNAc
# How it was run: as §1
# [9] = biological target: Gal(a1-4)Gal(b1-3)GlcNAc(b1-2)Man(a1-3)[Gal(a1-4)Gal(b1-3)GlcNAc(b1-2)Man(a1-6)]Man(b1-4)GlcNAc(b1-4)GlcNAc
# How it was run: as §1
# [10] = biological target: Gal(a1-4)Gal(b1-4)Glc
# How it was run: as §1
# [11] = biological target: Gal(a1-4)Gal(b1-4)GlcNAc
# How it was run: as §1
# [12] = biological target: Gal(a1-4)Gal(b1-4)GlcNAc(b1-2)Man(a1-3)[Gal(a1-4)Gal(b1-4)GlcNAc(b1-2)Man(a1-6)]Man(b1-4)GlcNAc(b1-4)GlcNAc
# How it was run: as §1
# [13] = biological target: Gal(a1-4)Gal(b1-4)GlcNAc(b1-3)Gal(b1-4)Glc
# How it was run: as §1
# [14] = biological target: Gal(a1-4)GlcNAc
# How it was run: as §1
# [15] = biological target: Gal(a1-6)Glc
# How it was run: as §1
# [16] = biological target: Gal(b1-2)Gal
# How it was run: as §1
# [17] = biological target: Gal(b1-3)Gal
# How it was run: as §1
# [18] = biological target: Gal(b1-3)Gal(b1-4)GlcNAc
# How it was run: as §1
# [19] = biological target: Gal(b1-3)GalNAc
# How it was run: as §1
# [20] = biological target: Gal(b1-3)GalNAc(a1-3)[Fuc(a1-2)]Gal(b1-4)Glc
# How it was run: as §1
# [21] = biological target: Gal(b1-3)GalNAc(a1-3)[Fuc(a1-2)]Gal(b1-4)GlcNAc
# How it was run: as §1
# [22] = biological target: Gal(b1-3)GalNAc(b1-3)Gal
# How it was run: as §1
# [23] = biological target: Gal(b1-3)GalNAc(b1-3)Gal(a1-4)Gal(b1-4)Glc
# How it was run: as §1
# [24] = biological target: Gal(b1-3)GalNAc(b1-4)Gal(b1-4)Glc
# How it was run: as §1
# [25] = biological target: Gal(b1-3)GalNAc(b1-4)[Neu5Ac(a2-3)]Gal(b1-4)Glc
# How it was run: as §1
# [26] = biological target: Gal(b1-3)GlcNAc
# How it was run: as §1
# [27] = biological target: Gal(b1-3)GlcNAc(a1-3)Gal(b1-4)GlcNAc
# How it was run: as §1
# [28] = biological target: Gal(b1-3)GlcNAc(a1-6)Gal(b1-4)GlcNAc
# How it was run: as §1
# [29] = biological target: Gal(b1-3)GlcNAc(b1-2)Man
# How it was run: as §1
# [30] = biological target: Gal(b1-3)GlcNAc(b1-2)Man(a1-3)[Gal(b1-3)GlcNAc(b1-2)Man(a1-6)]Man(b1-4)GlcNAc(b1-4)GlcNAc
# How it was run: as §1
# [31] = biological target: Gal(b1-3)GlcNAc(b1-2)Man(a1-3)[Gal(b1-3)GlcNAc(b1-2)Man(a1-6)]Man(b1-4)GlcNAc(b1-4)[Fuc(a1-6)]GlcNAc
# How it was run: as §1
# [32] = biological target: Gal(b1-3)GlcNAc(b1-2)Man(a1-3)[GlcNAc(b1-4)][Gal(b1-3)GlcNAc(b1-2)Man(a1-6)]Man(b1-4)GlcNAc(b1-4)GlcNAc
# How it was run: as §1
# [33] = biological target: Gal(b1-3)GlcNAc(b1-2)[Gal(b1-3)GlcNAc(b1-6)]Man(a1-6)[Gal(b1-3)GlcNAc(b1-2)Man(a1-3)]Man(b1-4)GlcNAc(b1-4)GlcNAc
# How it was run: as §1
# [34] = biological target: Gal(b1-3)GlcNAc(b1-3)Gal(b1-3)GlcNAc
# How it was run: as §1
# [35] = biological target: Gal(b1-3)GlcNAc(b1-3)Gal(b1-4)Glc
# How it was run: as §1
# [36] = biological target: Gal(b1-3)GlcNAc(b1-3)Gal(b1-4)GlcNAc
# How it was run: as §1
# [37] = biological target: Gal(b1-3)GlcNAc(b1-3)Gal(b1-4)GlcNAc(b1-2)Man(a1-3)[Gal(b1-3)GlcNAc(b1-3)Gal(b1-4)GlcNAc(b1-2)Man(a1-6)]Man(b1-4)GlcNAc(b1-4)GlcNAc
# How it was run: as §1
# [38] = biological target: Gal(b1-3)GlcNAc(b1-3)Gal(b1-4)GlcNAc(b1-2)[Gal(b1-3)GlcNAc(b1-3)Gal(b1-4)GlcNAc(b1-6)]Man(a1-6)[Gal(b1-3)GlcNAc(b1-3)Gal(b1-4)GlcNAc(b1-2)Man(a1-3)]Man(b1-4)GlcNAc(b1-4)[Fuc(a1-6)]GlcNAc
# How it was run: as §1
# [39] = biological target: Gal(b1-3)GlcNAc(b1-3)Gal(b1-4)GlcNAc(b1-3)Gal(b1-4)GlcNAc(b1-2)[Gal(b1-3)GlcNAc(b1-3)Gal(b1-4)GlcNAc(b1-3)Gal(b1-4)GlcNAc(b1-6)]Man(a1-6)[Gal(b1-3)GlcNAc(b1-3)Gal(b1-4)GlcNAc(b1-3)Gal(b1-4)GlcNAc(b1-2)Man(a1-3)]Man(b1-4)GlcNAc(b1-4)[Fuc(a1-6)]GlcNAc
# How it was run: as §1
# [40] = biological target: Gal(b1-3)GlcNAc(b1-3)Gal(b1-4)GlcNAc(b1-6)[Gal(b1-3)GlcNAc(b1-3)]Gal(b1-4)Glc
# How it was run: as §1
# [41] = biological target: Gal(b1-3)GlcNAc(b1-3)Gal(b1-4)[Fuc(a1-3)]GlcNAc
# How it was run: as §1
# [42] = biological target: Gal(b1-3)GlcNAc(b1-3)Gal(b1-4)[Fuc(a1-3)]GlcNAc(b1-6)[Gal(b1-3)GlcNAc(b1-3)]Gal(b1-4)Glc
# How it was run: as §1
# [43] = biological target: Gal(b1-3)GlcNAc(b1-3)GalNAc
# How it was run: as §1
# [44] = biological target: Gal(b1-3)GlcNAc(b1-6)Gal(b1-4)GlcNAc
# How it was run: as §1
# [45] = biological target: Gal(b1-3)GlcNAc(b1-6)GalNAc
# How it was run: as §1
binder,measurement,setting,value
"Awp3 (Candida glabrata), B4UN32 (protein) MISFVTLLAILGLLSISWADQTVRSVAGDQRVTDPVIVGDNSILDYYGGSNYDFSNNFEIGRGTLYIGKESYFSSFQSAPTDVPNSFHLLIKNTNNLQNNGQFIIENIKRHANQCSNSSIQVFPINFQNDGEFEIISGGVEGRCCLPTSVIAPQNFLNNGKFYYKVLTDTGSIYSGSCMQNVDIGASTTTTVNNNLWEFTGSINAQINGAVSGAAQINLDGSNMFVNANTFSGQVVNLINGGSFLQTSDPLSNIVVINGLGTSDTGVTSIAVKGKGKSFTYNPSSGIVKLTTVEGKTYAYQIGCGYNTKKFITNNDSGASYESADNFFVLTYSEPYSPQTCQLENSSIFSSNFISTSTSSSSSSSSASSLPSSMSSSLPSSLSSSLSSSLSSSMSSSMSSLFIIPPPYTTTRSSGSSIIDTEIVSFYSTTDSPGHTITGTTTTTLYGPHTHSSVSTPSSSSESSTTSNSSIESSSLPHTSVSSTPESSITPSSNTISSSPTSDFSSVQSSSIMESSSVVASSSVINSSSIVDSSSSSASSLPSSMSSSLSSSMSSSLPSSMSSSLSSSLSSSLSSSMSSSMSSLFIIPPPYTTTRSSGSSIIDTEIVSFYSTTDSPGHTITGTTTTTLYGPHTHSSVSTPSSSSESSTTSNSSIESSSLPHTSVSSTPESSITPSSNTISSSPTSDFSSVQSSSIMESSSVVASSSVINSSSIVDSSSSSASSLPSSMPSSLPSSMSSSLSSSMSSSLSSSLSSSLSSSMSSSMSSLFIIPPPYTTTRSSGSSIIDTEIVSFYSTTDSPGHTITGTTTTTLYGPHTHSSVSTPSSSSESSTTSNSSIESSSLPHTSVSSTPESSITPSSNTISSSPTSDFSSVQSSSIMESSSVVASSSATQSSSVINSSSIVDSSSSSASSLPSSMPSSLPSSLSSSLSSSLSSSMSSSMSSLFIIPPPYTTTRSSGSSIIDTEIVSFYSTTDSPGHTITGTTTTTLYESSIYSSSSSTIQESELSNTSRTTMTSNSSVSISSTSSRSSFSNTKSSTIVISQSASLPDSKTDIILSTSSNIGYSSRSLLSDLGTSISDSDIHHSVLHSTESYSSNESGTNPFTSIASLSNFIPESSSHTSTALGSENSVISSDILTTMSHPVATNSGDKPTTPKRSEQVSTTMTSSGPTPDTSSFDTDGMSAYSRPEFTTNSLEVNKSSTSQLGNNKQTFSNLQLESTRPHSENEVDNNTRLLQSIQQSSTYGTNNVNPLSPTGSISIPLTEDGQGDNNNWNSPATNDLCTQISFNLTATTITVTDRITITDSIHDISSEVITSYIYQTIVDQKTVTQTVDGKSLANKMSSIPKPSSRSLIQPQPPVAIELQEGAASTSRVSLVSLFISIILVLL",glycan array binding signal (z-score),[1],-1.08
same,glycan array binding signal (z-score),[2],-0.744
same,glycan array binding signal (z-score),[3],-0.461
same,glycan array binding signal (z-score),[4],-0.928
same,glycan array binding signal (z-score),[5],-0.54
same,glycan array binding signal (z-score),[6],-0.419
same,glycan array binding signal (z-score),[7],1.46
same,glycan array binding signal (z-score),[8],-0.711
same,glycan array binding signal (z-score),[9],-0.156
same,glycan array binding signal (z-score),[10],0.805
same,glycan array binding signal (z-score),[11],-0.218
same,glycan array binding signal (z-score),[12],1.22
same,glycan array binding signal (z-score),[13],0.68
same,glycan array binding signal (z-score),[14],2.25
same,glycan array binding signal (z-score),[15],-0.454
same,glycan array binding signal (z-score),[16],-0.471
same,glycan array binding signal (z-score),[17],-0.155
same,glycan array binding signal (z-score),[18],-0.446
same,glycan array binding signal (z-score),[19],0.079
same,glycan array binding signal (z-score),[20],0.765
same,glycan array binding signal (z-score),[21],-1.14
same,glycan array binding signal (z-score),[22],-0.738
same,glycan array binding signal (z-score),[23],1.46
same,glycan array binding signal (z-score),[24],-0.005
same,glycan array binding signal (z-score),[25],-0.191
same,glycan array binding signal (z-score),[26],-0.878
same,glycan array binding signal (z-score),[27],-0.426
same,glycan array binding signal (z-score),[28],0.259
same,glycan array binding signal (z-score),[29],0.418
same,glycan array binding signal (z-score),[30],2.55
same,glycan array binding signal (z-score),[31],-0.994
same,glycan array binding signal (z-score),[32],-1.2
same,glycan array binding signal (z-score),[33],0.433
same,glycan array binding signal (z-score),[34],0.086
same,glycan array binding signal (z-score),[35],0.728
same,glycan array binding signal (z-score),[36],-0.629
same,glycan array binding signal (z-score),[37],-0.664
same,glycan array binding signal (z-score),[38],0.908
same,glycan array binding signal (z-score),[39],-1.72
same,glycan array binding signal (z-score),[40],1.3
same,glycan array binding signal (z-score),[41],-0.652
same,glycan array binding signal (z-score),[42],2.48
same,glycan array binding signal (z-score),[43],-0.027
same,glycan array binding signal (z-score),[44],-0.082
same,glycan array binding signal (z-score),[45],1.81
